From patent publication US20100234220A1, “Oxooxetanes as Fungicidal Agents” (Bayer CropScience AG, priority 2006, published 2010)
Some results were stated once for a whole list of compounds, not compound by compound. For some assays here: For at least one compound, name, drawing or mass did not settle the structure.

What was measured:
Assay type in all cases: in vivo
[1] = system: Plasmopara viticola; test: Plasmopara test (grapevine)/protective; settings: protective, 100 ppm, evaluation 6 days after inoculation
[2] = system: Botrytis cinerea; test: Botrytis test (bean)/protective; settings: protective, 500 ppm, evaluation 2 days after inoculation
[3] = system: Alternaria solani; test: Alternaria test (tomato)/protective; settings: protective, 500 ppm, evaluation 7 days after inoculation
[4] = system: Blumeria graminis f.sp. tritici; test: Blumeria test (wheat)/protective; settings: protective, 1000 ppm, evaluation 7 days after inoculation

SMILES	efficacy [3]	efficacy [4]	other results
CC[C@H](C)[C@@H]1C(=O)O[C@H]1C(=O)NCc1cc(OC)cc(OC)c1 [Example 1, (3S)-(1S-Methylpropyl)-(2R)-(3,5-dimethoxybenzylaminocarbonyl)-4-oxooxetane]	≥ 70%		efficacy [1]: ≥ 70%; efficacy [2]: ≥ 70%
CC[C@H](C)[C@@H]1C(=O)O[C@H]1C(=O)NCc1cccc(Cl)c1 [Example 5]	≥ 70%		
CC[C@H](C)[C@@H]1C(=O)O[C@H]1C(=O)NCc1ccccc1Cl [Example 5a]		≥ 70%	
CC[C@H](C)[C@@H]1C(=O)O[C@H]1C(=O)NCc1cccc(OC(F)F)c1 [Example 40]	≥ 70%		
COc1cc(CNC(=O)C2OC(=O)C2C(C)C)cc(OC)c1 (centres unmarked) [Example 489]	≥ 70%		
CCC(C)C1C(=O)OC1C(=O)NC(C)c1ccc(OC)cc1 (centres unmarked) [Example 1139]	≥ 70%		
CCC(C)C1C(=O)OC1C(=O)NC(C)c1ccc(C(C)(C)C)cc1 (centres unmarked) [Example 1173]	≥ 70%		
CCC(C)C1C(=O)OC1C(=O)NCc1ccc(C(F)(F)F)c(F)c1 (centres unmarked) [Example 2360]	≥ 70%	≥ 70%	
CCC(C)C1C(=O)OC1C(=O)NCc1ccc(F)cc1C(F)(F)F (centres unmarked) [Example 2362]		≥ 70%	
CCC(C)C1C(=O)OC1C(=O)NCc1ccc(OC(F)(F)F)cc1Cl (centres unmarked) [Example 2365]		≥ 70%	
CCC(C)C1C(=O)OC1C(=O)Nc1cc(F)cc(F)c1 (centres unmarked) [Example 2517a]	≥ 70%		
